Test results from patent publication EP2632470B1 (priority 2010, dated 2012).
Where two headings read alike, the source gives them in different places.

How the values were obtained:
[1] = source (a) NIST Standard Reference Database 46; cited from earlier work
[2] = Iron affinity, stepwise association constant log K1; format: physicochemical
[3] = (c) interpolated from correlation between Zn^2+ and Fe^2+ data

| SMILES | Iron Affinity, log K1 Fe^2+, pH = 7.4 [1] | Iron Affinity, log K1 Fe^2+, pH = 7.4 [2, 3] | also measured |
| --- | --- | --- | --- |
| c1cnc2c(c1)ccc1cccnc12 [1,10-Phenanthroline] | 5.9 (a) | – | – |
| O=C(O)CN(CC(=O)O)[C@@H]1CCCC[C@H]1N(CC(=O)O)CC(=O)O (relative stereo) [trans-1,2-Cyclohexylenedinitrilotetraacetic acid] | 14.0 (a) | – | – |
| NCCc1ccccn1 [2-(2-aminoethyl)-pyridine] | – | – | Iron Affinity, log K1 Fe^2+, pH = 7.4 ([2]; (d) interpolated from correlation between Fe^3+ and Fe^2+ data): 5.2 (d) |
| CCC(NCCNC(CC)C(=O)O)C(=O)O (stereo not drawn) [Ethylenediiminodi-2-butanoic acid] | – | 6.3 (c) | – |
| c1ccc(CN(CCN(Cc2ccccn2)Cc2ccccn2)Cc2ccccn2)nc1 [N,N,N',N-tetrakis(2-pyridylmethyl) ethylenediamine] | 14.2 (a) | – | – |
| CC(C)c1cccc(O)c(=O)c1 [1-Hydroxy-4-(1-methylethyl)cyclohepta-3,5,7-trien-2-one] | – | 4.9 (c) | – |
